Some of these results come from one statement about several compounds together.
Tested on: PGE2
Assay: Intratumoral concentration of PGE2 in HT-29 tumors (Example 1)
Type: in vivo, CB17SCID male mice
Settings: Compound A01 alone or in combination with erlotinib; range over groups
Procedure: 48 CB17SCID male mice were implanted with 2.5×10^6 HT29 cells. Growth of the tumor was calculated for each animal using a caliper and the equation: V=π×ab^2/6.
Mouse weight and tumor volume measurements were taken on days 0, 3, 6, 9, 12, 15, 18, 21, and 22 following randomization.

For [2H]C([2H])([2H])c1cc(Br)cc2c1O[C@H](C(F)(F)F)C(C(=O)O)=C2 [Compound A01, (S)-6-bromo-8-trideuteromethyl-2-(trifluoromethyl)-2H-chromene-3-carboxylic acid], the “suppression of PGE2 levels in the tumor” value was 66-100%.
